Results: paper PMC11602133
Construct, isoform or probe ends are uncertain for at least one entry.

By UniProt entry, the sequences of proteins in these tests, tags left out. Where a name states a change or a piece, a line headed by the entry shows the natural chain unless it says otherwise.
UniProt O64645: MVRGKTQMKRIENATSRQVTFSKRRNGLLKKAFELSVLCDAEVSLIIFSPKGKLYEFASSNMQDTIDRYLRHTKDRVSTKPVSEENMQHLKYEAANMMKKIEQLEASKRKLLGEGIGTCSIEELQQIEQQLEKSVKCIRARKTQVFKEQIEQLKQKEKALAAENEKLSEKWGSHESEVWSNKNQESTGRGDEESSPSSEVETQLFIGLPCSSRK
UniProt P17839: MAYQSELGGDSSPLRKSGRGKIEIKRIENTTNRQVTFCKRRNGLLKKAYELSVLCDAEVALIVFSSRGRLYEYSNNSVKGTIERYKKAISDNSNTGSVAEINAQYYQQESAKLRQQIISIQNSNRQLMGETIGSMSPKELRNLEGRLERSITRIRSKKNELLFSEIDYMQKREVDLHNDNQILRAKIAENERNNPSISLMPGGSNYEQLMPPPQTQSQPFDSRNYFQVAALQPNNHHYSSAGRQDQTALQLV
UniProt O22456: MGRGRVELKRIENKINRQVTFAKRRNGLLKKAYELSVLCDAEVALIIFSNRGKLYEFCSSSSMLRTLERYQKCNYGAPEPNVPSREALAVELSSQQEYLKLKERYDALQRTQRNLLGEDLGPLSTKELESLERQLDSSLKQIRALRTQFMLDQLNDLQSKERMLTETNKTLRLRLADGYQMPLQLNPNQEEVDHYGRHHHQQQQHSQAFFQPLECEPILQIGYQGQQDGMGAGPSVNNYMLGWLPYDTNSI

Assays:
Test in all cases: EMSA
[1] = test system: FUL-GFP (F-G) + AG + SEP3; settings: size-shifted complex; EMSA per Smaczniak et al. (ref 17) with minor modifications; in vitro wheat germ TnT proteins; pH and temperature not stated; protein translated in vitro; protein details: linker-GFP (C-term); label: DY-682; probe letters rebuilt from the primers and the genome; part of a longer molecule
[2] = test system: FUL-GFP (F-G) + AG; settings: size-shifted complex; EMSA per Smaczniak et al. (ref 17) with minor modifications; in vitro wheat germ TnT proteins; pH and temperature not stated; protein translated in vitro; protein details: linker-GFP (C-term); label: DY-682; probe letters rebuilt from the primers and the genome; part of a longer molecule
[3] = molecular target: SOC1 (Arabidopsis thaliana) (UniProt O64645); settings: homodimer and homotetramer; EMSA per Smaczniak et al. (ref 17) with minor modifications; in vitro wheat germ TnT proteins; pH and temperature not stated; protein translated in vitro; residues 1-214; label: DY-682; probe letters rebuilt from the primers and the genome; part of a longer molecule
[4] = molecular target: AG (Arabidopsis thaliana) (UniProt P17839); settings: homodimer; EMSA per Smaczniak et al. (ref 17) with minor modifications; in vitro wheat germ TnT proteins; pH and temperature not stated; protein translated in vitro; label: DY-682; probe letters rebuilt from the primers and the genome; part of a longer molecule
[5] = test system: AG + SEP3; settings: tetramer AG-SEP-AG-SEP; EMSA per Smaczniak et al. (ref 17) with minor modifications; in vitro wheat germ TnT proteins; pH and temperature not stated; protein translated in vitro; label: DY-682; probe letters rebuilt from the primers and the genome; part of a longer molecule
[6] = molecular target: SEP3 (Arabidopsis thaliana) (UniProt O22456); settings: homodimer; EMSA per Smaczniak et al. (ref 17) with minor modifications; in vitro wheat germ TnT proteins; pH and temperature not stated; protein translated in vitro; label: DY-682; probe letters rebuilt from the primers and the genome; part of a longer molecule

Measured: binding result

AACCATTGTGTTTATTTTGCATATACGGACACGTGTATTTTGTTACCATATTTGGACATTATTGAAACATACATAAATGCCCACTTCCCTCAACAAAGAA (double strand) [SAUR10 probe (probe 1)]
binds: all assays above
